This data set can be described thus: self-splicing fitness, log relative to wild type (ln ratio); higher = more splicing; Tetrahymena group I intron in knt gene, E. coli kanamycin selection, DiMSum; sequences stand for … in CUCUCU…GGAGGGAAAAGUUAUCAGGCAUGCACCUGGUAGCUAGUCUUUAAACCAAUAGAUUGCAUCGGUUUAAAAGGCAAGACCGUCAAAUUGCGGGAAAGGGGUCAACAGCCGUUCAGUACCAAGUCUCAGGGGAAACUUUGAGAUGGCCUUGCAAAGGGUAUGGUAAUAAGCUGACGGACAUGGUCCUAACCACGCAGCCAAGUCCUAAGUCAACAGAUCUUCUGUUGAUAUGGAUGCAGUUCACAGACUAAAUGUCGGUCGGGGAAGAUGUAUUCUUCUCAUAAGAUAUAGUCGGACCUCUCCUUAAUGGGAGCUAGCGGAUGAAGUGAUGCAACACUGGAGCCGCUGGGAACUAAUUUGUAUGCGAAAGUAUAUUGAUUAGUUUUGGAGUACUCGUGGUCG
The method, boiled down: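 DiMSum derived fitness as the error-weighted combination of fold changes across replicates, kanamycin versus no kanamycin, normalised to wild type. E. coli BL21(DE3) held the library, which randomised all eight P1ex-region intron nucleotides within the knt kanamycin-resistance gene on pET-22b(+). Six replicate transformations grew overnight at 37°C or 30°C on LB agar with or without 25 μg/mL kanamycin, also containing 100 μg/mL carbenicillin, 50 μM IPTG and 0.2% rhamnose, and pooled colonies were amplicon-sequenced on an Illumina HiSeq 2500.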

± gives the uncertainty stated by the source. Many entries were measured with a wide error.

As for UUGGAGCAAUAUUACGUACA, for the setting “30 °C”, the “self-splicing fitness (ln)” value is -3.32 ± 0.62.

For UUUUAGCAAUAUUACGCAGG, the “self-splicing fitness (ln)” value was -1.33 ± 0.12 (30 °C) and -1.03 ± 0.16 (37 °C).

With GUGGAGCAAUAUUACGGAAC, for the setting “30 °C”, the “self-splicing fitness (ln)” value is -4.46 ± 1. Take CUUUAGCAAUAUUACGUUAC: the “self-splicing fitness (ln)” value by setting is: (30 °C) -3.92 ± 0.34; (37 °C) -1.74 ± 0.29.

For the sequence CCCUAGCAAUAUUACGGACU, the “self-splicing fitness (ln)” value reads like this: (30 °C) -3.48 ± 0.3; (37 °C) -2 ± 0.32.

Consider CCGUAGCAAUAUUACGACAG, for which the “self-splicing fitness (ln)” value runs as follows: (30 °C) -0.678 ± 0.11; (37 °C) -0.234 ± 0.13. As to UUUUAGCAAUAUUACGAUGC, the “self-splicing fitness (ln)” value (30 °C) is -3.53 ± 0.6. GGAUAGCAAUAUUACGCCUG: the “self-splicing fitness (ln)” value (37 °C) is -0.927 ± 1.2. For CUCAAGCAAUAUUACGGUCA, the “self-splicing fitness (ln)” value (30 °C) was -3.19 ± 0.2 and the “self-splicing fitness (ln)” value (37 °C) was -2.35 ± 0.2. CAGGAGCAAUAUUACGCGCC: the “self-splicing fitness (ln)” value (30 °C) is -4.12 ± 0.53. As for GGUAAGCAAUAUUACGUCGG, the “self-splicing fitness (ln)” value is -3.15 ± 0.62 (30 °C) and -2.36 ± 0.5 (37 °C).

GACCAGCAAUAUUACGAUAA: the “self-splicing fitness (ln)” value was -1.53 ± 0.094 (30 °C) and -1.13 ± 0.1 (37 °C). GGAAAGCAAUAUUACGCUUC: the “self-splicing fitness (ln)” value (37 °C) was -1.97 ± 0.57. Consider AAGGAGCAAUAUUACGGAAC, for which the “self-splicing fitness (ln)” value (30 °C) was -3.57 ± 0.61. With UUCUAGCAAUAUUACGUGGC, under “37 °C”, the “self-splicing fitness (ln)” value was -2.2 ± 0.66. For UCCGAGCAAUAUUACGCACC, the “self-splicing fitness (ln)” value runs as follows: (30 °C) -2.09 ± 1; (37 °C) -0.234 ± 1.4. UGGGAGCAAUAUUACGGCGC: where the note is “37 °C”, the “self-splicing fitness (ln)” value is -0.595 ± 1.4. CAACAGCAAUAUUACGGCAA: the “self-splicing fitness (ln)” value reads like this: (30 °C) -1.45 ± 0.13; (37 °C) -1.28 ± 0.12. Regarding CAGGAGCAAUAUUACGACAC, the “self-splicing fitness (ln)” value (30 °C) was -3.19 ± 1.2. Same read-out and setting: the result for AAUGAGCAAUAUUACGCUAG reads -3.26 ± 0.74; that for UCGGAGCAAUAUUACGAACG, -2.07 ± 0.63.

As for UAAGAGCAAUAUUACGAUCC, for the setting “37 °C”, the “self-splicing fitness (ln)” value is -2.29 ± 0.56. Still for that read-out and setting: the value for CCGGAGCAAUAUUACGUUGC was -1.9 ± 0.58. CGGGAGCAAUAUUACGCAAU: the “self-splicing fitness (ln)” value reads like this: (30 °C) -3.15 ± 0.39; (37 °C) -3.36 ± 0.74. Consider UUUUAGCAAUAUUACGCGGU, for which, where the note is “30 °C”, the “self-splicing fitness (ln)” value is -2.74 ± 0.62. As for CGAAAGCAAUAUUACGAAUU, the “self-splicing fitness (ln)” value runs as follows: (30 °C) -4.27 ± 0.29; (37 °C) -1.55 ± 0.14. Regarding CGUGAGCAAUAUUACGAAGC, the “self-splicing fitness (ln)” value reads like this: (30 °C) -3.23 ± 1; (37 °C) -2.03 ± 0.77. For the sequence GGGGAGCAAUAUUACGACAA, under “37 °C”, the “self-splicing fitness (ln)” value was -1.85 ± 0.67. Take GUGAAGCAAUAUUACGGCCC: the “self-splicing fitness (ln)” value (37 °C) amounted to 1.1 ± 0.53. As for AAGCAGCAAUAUUACGAGAA, where the note is “30 °C”, the “self-splicing fitness (ln)” value is -2.53 ± 0.84. With CUCCAGCAAUAUUACGUCAA, the “self-splicing fitness (ln)” value (30 °C) is -3.08 ± 0.19 and the “self-splicing fitness (ln)” value (37 °C) is -3.24 ± 0.23. As for CUACAGCAAUAUUACGCAUU, the “self-splicing fitness (ln)” value (30 °C) is -5.01 ± 0.51.

In the case of UGAUAGCAAUAUUACGUCUA, the “self-splicing fitness (ln)” value runs as follows: (30 °C) 0.0941 ± 0.089; (37 °C) -0.107 ± 0.094. For GGAGAGCAAUAUUACGCUCC, the “self-splicing fitness (ln)” value (30 °C) was -4.49 ± 1. On the same count and under the same terms, the result for UCAAAGCAAUAUUACGGCCU reads -4.57 ± 0.51. In the case of CAUGAGCAAUAUUACGCAGA, the “self-splicing fitness (ln)” value by setting is: (30 °C) -4.53 ± 0.32; (37 °C) -1.69 ± 0.15. In the same order, the values of ACGCAGCAAUAUUACGCGUG are -3.43 ± 0.18 and -2.07 ± 0.17. With UCAGAGCAAUAUUACGCGGC, for the setting “37 °C”, the “self-splicing fitness (ln)” value was -3.08 ± 0.4.

UCAGAGCAAUAUUACGAUUA: where the note is “37 °C”, the “self-splicing fitness (ln)” value was -2.68 ± 0.64. Still for that read-out and setting: the result for GGGGAGCAAUAUUACGCUUU reads -2.73 ± 0.54. Still for that read-out and setting: the value for UACGAGCAAUAUUACGACCA was -2.07 ± 0.78. AACGAGCAAUAUUACGGCCC: the “self-splicing fitness (ln)” value is -3.83 ± 1 (30 °C) and -0.693 ± 1.4 (37 °C). In the same order, the values of CGCGAGCAAUAUUACGCAAG are -2.92 ± 0.27 and -2.91 ± 0.43. As to UAUGAGCAAUAUUACGAAAU, the “self-splicing fitness (ln)” value (37 °C) is -3.51 ± 0.59.

In the case of GGAGAGCAAUAUUACGUACC, the “self-splicing fitness (ln)” value (30 °C) is -1.09 ± 0.68. For the sequence UGCCAGCAAUAUUACGACAG, the “self-splicing fitness (ln)” value was -1.31 ± 0.1 (30 °C) and -0.406 ± 0.12 (37 °C). With UGGAAGCAAUAUUACGGAUU, the “self-splicing fitness (ln)” value is -1.49 ± 0.08 (30 °C) and -1.68 ± 0.12 (37 °C). In the case of AGUGAGCAAUAUUACGUAGG, the “self-splicing fitness (ln)” value (37 °C) was -3.53 ± 0.52. Same read-out and setting: the value for UCGUAGCAAUAUUACGUGAC was -2.63 ± 0.54.

Source of the values: the supplement of paper PMC7877785.
